According to patent US10064928B2, “Peptides and combination of peptides for use in immunotherapy against CLL and other cancers” (IMMATICS BIOTECHNOLOGIES GMBH, priority 2015, dated 2018):

Experiments:
[1] = test system: CLL samples compared to a panel of normal tissues; assay: Identification and label-free relative LC-MS quantitation of HLA-presented peptides (presentation profiles and scores); parameters: species or system human; key: very highly over-presented on tumors compared to a panel of normal tissues (+++); highly over-presented on tumors compared to a panel of normal tissues (++); over-presented on tumors compared to a panel of normal tissues (+); details: presentation score; over-presentation on tumors (CLL samples) compared to a panel of normal tissues
[2] = test system: other tumor types (e.g. non-Hodgkin lymphoma, lung cancer); assay: Presentation of the peptides on additional tumor types (LC-MS, Tables 4A/4B, FIG. 1); parameters: species or system human; details: for Other relevant organs/diseases: Table 4A: additional tumor types where the peptide was over-presented on more than 5% of the measured tumor samples, or presented on more than 5% with ratio of geometric means tumor vs normal tissues larger than 3; for Additional Entities: Table 4B: additional tumour types with over-presentation (including specific presentation) on more than 5% of the measured tumour samples, or presentation on more than 5% with ratio of geometric means tumour vs normal tissues larger than 3, extended normal tissue panel

Substance | Peptide Presentation [1] | Other relevant organs/diseases [2] | Additional Entities [2]
145 (SALDTITTV; listed as Homo sapiens) [compound 145] | +++ | NHL | NSCLC, RCC, GC, HCC, AML
147 (SILETVATL; listed as Homo sapiens) [compound 147] | +++ | NHL, AML | Melanoma
148 (SIVASLITV; listed as Homo sapiens) [compound 148] | +++ | NHL, AML | 
154 (SLLAELHVLTV; listed as Homo sapiens) [compound 154] | ++ | NHL | 
155 (SLMLEVPAL; listed as Homo sapiens) [compound 155] | +++ | HCC, NHL | 
157 (SLNIRDFTM; listed as Homo sapiens) [compound 157] | +++ | AML | 
160 (SLSFLVPSL; listed as Homo sapiens) [compound 160] | +++ | NHL, AML, Urinary bladder cancer | Uterine Cancer
162 (SMKDDLENV; listed as Homo sapiens) [compound 162] | +++ | NSCLC, SCLC, RCC, HCC, NHL, BRCA, Melanoma, Esophageal Cancer, Uterine Cancer, Gallbladder Cancer, Bile Duct Cancer | PC, OC, HNSCC
163 (SQLDISEPYKV; listed as Homo sapiens) [compound 163] | + | NHL | 
164 (SVHKGFAFV; listed as Homo sapiens) [compound 164] | +++ | NSCLC, RCC, Brain Cancer, GC, AML, Esophageal Cancer, Urinary bladder cancer, Uterine Cancer | CRC, Melanoma, HNSCC
165 (TLDDDLDTV; listed as Homo sapiens) [compound 165] | +++ | NHL | 
166 (TLDPNQVSL; listed as Homo sapiens) [compound 166] | +++ | AML | 
167 (TLDTSKLYV; listed as Homo sapiens) [compound 167] | +++ | NHL | 
168 (YLLDQSFVM; listed as Homo sapiens) [compound 168] | +++ | NHL | 
169 (TLLLGLTEV; listed as Homo sapiens) [compound 169] | +++ | NHL, Melanoma | 
170 (TLTFRVETV; listed as Homo sapiens) [compound 170] | +++ | NHL, Melanoma | 
172 (TLYDMLASI; listed as Homo sapiens) [compound 172] | +++ | CRC, NHL, AML, Melanoma | SCLC, Urinary Bladder Cancer, Uterine Cancer
174 (VLAELPIIVV; listed as Homo sapiens) [compound 174] | +++ |  | NSCLC, OC
175 (FTVPRVVAV; listed as Homo sapiens) [compound 175] | ++ | NHL | 
176 (VLAEQNIIPSA; listed as Homo sapiens) [compound 176] | +++ |  | NSCLC, SCLC, GC, Melanoma, NHL, HNSCC

Substance | Peptide Presentation [1] | Other relevant organs/diseases [2] | Additional Entities [2]
178 (VLFFNVQEV; listed as Homo sapiens) [compound 178] | +++ | SCLC, NHL | 
179 (VLLGLEMTL; listed as Homo sapiens) [compound 179] | +++ | NHL, Esophageal Cancer | HNSCC
181 (VLLSIPFVSV; listed as Homo sapiens) [compound 181] | + | HCC, NHL | Melanoma, Gallbladder Cancer, Bile Duct Cancer
185 (VMDDQRDLI; listed as Homo sapiens) [compound 185] | + | AML | 
186 (VMDPTKILI; listed as Homo sapiens) [compound 186] | +++ | AML, Urinary bladder cancer | 
187 (VMDTHLVNI; listed as Homo sapiens) [compound 187] | +++ | NHL, Urinary bladder cancer | CRC, Melanoma, Uterine Cancer
189 (VMLEMTPEL; listed as Homo sapiens) [compound 189] | +++ | SCLC, PC, NHL, BRCA, Melanoma, Gallbladder Cancer, Bile Duct Cancer | HNSCC
190 (VVMGTVPRL; listed as Homo sapiens) [compound 190] | +++ | NHL, AML | Melanoma
191 (YIFDGSDGGV; listed as Homo sapiens) [compound 191] | +++ |  | Uterine Cancer
192 (YIQEYLTLL; listed as Homo sapiens) [compound 192] | +++ | NHL | SCLC, Urinary Bladder Cancer, AML, HNSCC
194 (YLDNVLAEL; listed as Homo sapiens) [compound 194] | + | NHL | 
197 (YLQEVPILTL; listed as Homo sapiens) [compound 197] | +++ | NHL, Melanoma | Uterine Cancer
198 (YLTFLPAEV; listed as Homo sapiens) [compound 198] | +++ |  | BRCA, Uterine Cancer
199 (YLVELSSLL; listed as Homo sapiens) [compound 199] | +++ | HCC, NHL, AML | Melanoma
200 (YMFEEVPIVI; listed as Homo sapiens) [compound 200] | +++ | NSCLC, SCLC, CRC, HCC, NHL, Melanoma, Esophageal Cancer, OC, Urinary bladder cancer, Gallbladder Cancer, Bile Duct Cancer | BRCA, HNSCC
201 (YQLELHGIEL; listed as Homo sapiens) [compound 201] | +++ | Esophageal Cancer | NHL
202 (YVDDVFLRV; listed as Homo sapiens) [compound 202] | +++ | Urinary bladder cancer | AML, HNSCC
204 (GLLQINDKIAL; listed as Homo sapiens) [compound 204] | ++ | SCLC, RCC, HCC, Melanoma, OC, Urinary bladder cancer | BRCA, Uterine Cancer, AML
205 (GLSQANFTL; listed as Homo sapiens) [compound 205] | + | NHL | 
